Assay results published in PubChem BioAssay AID493014 (National Center for Advancing Translational Sciences (NCATS), 2011).
The list shows a part of the results. Shown are side measurements of this screen, not its main read-out; they come without a call. Compounds called inactive in the main read-out are mostly missing here. Potencies come from curve fits of mixed quality, noted in brackets.

Test: qHTS Assay to Find Inhibitors of Chronic Active B-Cell Receptor Signaling
Details: ABC-DLBCL IkBa-CBG/CBR reporter, luminescence ratio (green luciferase fused to IkBa over red control in TMD8 lymphoma cells), 4 h
Outline: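 TMD8 human ABC-DLBCL cells with doxycycline-inducible IκBα–green luciferase fusion and unfused red luciferase, in 0.5% FBS medium; compounds up to 46 uM, 4 h at 37C. Green/red luminescence ratio, filter-overlap corrected, fitted to concentration-response curves.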

[1] = measured here: CBR red luminescence, cell number
[2] = measured here: IkBa-CBG green luminescence

For `CCn1c2ccccc2c2cc(NC(=O)c3cccc(OC)c3OC)ccc21`, the AC50 [1] was 1.64 µM [rising, full curve].
In the case of `Cc1ccc(NC(=O)CN2C=NS(=O)(=O)c3ccccc32)cc1`, the AC50 [1] is reported as 4.47 µM [falling, full curve, poor fit].
For `Nc1nonc1-n1nnc(C(=O)N/N=C/C=C/c2ccccc2)c1CSC1=NCCS1`, the AC50 [1] was 10 µM [falling, partial curve, poor fit].
For `C[C@@H]1CN([C@@H](C)CO)C(=O)c2cccc(NC(=O)Nc3ccc(F)cc3)c2O[C@@H]1CN(C)Cc1ccc(Oc2ccccc2)cc1`, the AC50 [1] was 13 µM [falling, partial curve, poor fit].
With `Cc1ccc(NC(=O)c2ccc(=O)n(CC(=O)Nc3ccccc3)n2)cc1` the AC50 [1] was 0.1 µM [rising, full curve, poor fit].
In the case of `Cc1csc(SCC(=O)NCc2ccc3c(c2)OCO3)n1`, the AC50 [1] is reported as 22.4 µM [rising, single point].
In the case of `O=C1CSC(c2cn(-c3ccccc3)nc2-c2ccccc2)N1Cc1ccco1` (configuration not stated), the AC50 [1] is reported as 7.31 µM [falling, partial curve, poor fit].
In the case of `Cc1ccc(S(=O)(=O)N2CCN(C(C)C(=O)NCC(C)c3ccccc3)CC2)cc1` (configuration not stated), the AC50 [1] is reported as 6.51 µM [falling, single point].
For `Nc1nc(CCl)nc(Nc2cccc3ccccc23)n1`, the AC50 [1] was 17.8 µM [falling, partial curve, poor fit].
In the case of `CC(OC(=O)c1ccc(O)cc1)C(=O)Nc1cc(C(F)(F)F)ccc1Cl` (configuration not stated), the AC50 [1] is reported as 2 µM [falling, partial curve, poor fit].
For `CCCc1nnc2n1N=C(c1ccc(C)cc1)CS2`, the AC50 [1] was 20 µM [falling, single point].
With `Cc1ccc(N=CC=C2OC(C)(C)C(C)(C)O2)cc1` the AC50 [1] was 6.51 µM [falling, partial curve, poor fit].
In the case of `N#C/C(=N\Nc1ccc([N+](=O)[O-])cc1)C(=N)N1CCOCC1`, the AC50 [1] is reported as 0.1 µM [rising, full curve, poor fit].
For `O=C(NNc1c2ccccc2nc2ccccc12)c1ccccc1O`, the AC50 [1] was 16.4 µM [falling, single point].
In the case of `COc1ccc(CNC(=O)C(CCSC)NS(=O)(=O)c2ccccc2F)cc1` (configuration not stated), the AC50 [1] is reported as 25.1 µM [rising, single point].
For `N#Cc1nc(-c2cccc3ccccc23)oc1NCCN1CCCCC1`, the AC50 [1] was 5.8 µM [rising, single point].
In the case of `COc1cccc(NC(=O)CN(C)C(=O)c2ccc(S(=O)(=O)Nc3ccccc3F)cc2)c1`, the AC50 [1] is reported as 6.51 µM [rising, single point] and the AC50 [2] is reported as 6.51 µM [falling, single point].
For `CC1(C)NC(=O)N(CNc2cc(Cl)ccc2Cl)C1=O`, the AC50 [1] was 0.366 µM [falling, partial curve, poor fit].
For `CCN=C1S/C(=C\c2cn(CC(=O)NCc3ccco3)c3ccccc23)C(=O)N1CC`, the AC50 [1] was 2.51 µM [falling, partial curve, poor fit].
For `Oc1ccc(-c2[nH]ncc2-c2nc3ccccc3s2)c(O)c1`, the AC50 [1] was 35.5 µM [falling, single point].
In the case of `CNC(=S)N(Cc1ccc(OC)cc1)C1CC(=O)N(c2ccc(Cl)cc2)C1=O` (configuration not stated), the AC50 [1] is reported as 12.6 µM [falling, partial curve, poor fit].
In the case of `Fc1cccc(CSc2nnc3ccc(-c4ccncc4)nn23)c1`, the AC50 [1] is reported as 35.5 µM [falling, single point].
With `O=C(O)/C=C/c1ccc(S(=O)(=O)Nc2ccc3[nH]c(=O)[nH]c3c2)cc1` the AC50 [1] was 35.5 µM [falling, single point].
In the case of `O=C(/C=C\Nc1ccccn1)c1ccc(Cl)cc1`, the AC50 [1] is reported as 2 µM [falling, full curve].
For `O=C(N/N=C/c1cccc(O)c1)c1ccc(COc2ccccc2Br)cc1`, the AC50 [1] was 29.1 µM [falling, single point].
For `COC(=O)CCCn1c(C)cc(C(=O)CCl)c1C`, the AC50 [1] was 14.1 µM [falling, single point].
In the case of `CC(=O)c1cc(CC=C(C)C)c(O)c(CC=C(C)C)c1O`, the AC50 [1] is reported as 20 µM [rising, single point].
With `c1ccc(-c2ccc(-c3ccccn3)s2)nc1` the AC50 [1] was 17.8 µM [falling, single point].
With `COc1ccnc(CSC(N)=Nc2ccc(F)cc2)c1` the AC50 [1] was 25.9 µM [falling, single point].
With `COc1ccc(C(=O)c2c(NC(C)=O)sc3c2CCN(C(=O)OC(C)(C)C)C3)cc1` the AC50 [1] was 1.58 µM [rising, partial curve, poor fit].
In the case of `O=c1[nH]c2ccc(Cl)cc2c(-c2ccccc2)c1SC(=S)N1CCOCC1`, the AC50 [1] is reported as 14.6 µM [falling, single point].
In the case of `O=C(COC(=O)Cn1cnc2ccccc21)NCCC1=CCCCC1`, the AC50 [1] is reported as 29.1 µM [rising, single point].
For `Cc1nn(-c2ccccc2)c(N)c1N=Nc1cccnc1`, the AC50 [1] was 2.82 µM [rising, partial curve, poor fit] and the AC50 [2] was 12.6 µM [falling, partial curve, poor fit].
In the case of `COCCn1c(C)cc(C(=O)COC(=O)/C=C/c2ccc(OC)cc2OC)c1C`, the AC50 [1] is reported as 4.11 µM [rising, partial curve, poor fit].
With `CCCOc1ccc(C(=O)NNC(=S)NC(=O)c2ccco2)cc1` the AC50 [1] was 35.5 µM [rising, single point] and the AC50 [2] was 35.5 µM [falling, single point].
In the case of `COc1ccccc1NC(=O)Nc1nc(CC(=O)N2CCN(c3ccccc3OC)CC2)cs1`, the AC50 [1] is reported as 29.1 µM [falling, single point].
With `Cc1ccc(OCCC(=O)OCC(=O)Nc2cc(C)cc(C)c2)cc1` the AC50 [1] was 14.1 µM [falling, single point].
With `CCC(=O)Nc1c(-c2ccccc2)c(=O)c2ccccc2n1C` the AC50 [1] was 4.47 µM [falling, partial curve].
For `Cc1cc(C)n(-c2nc3ccccc3c(=O)n2OCC(C)C)n1`, the AC50 [1] was 5.62 µM [rising, single point].
With `O=C(c1cc2n(n1)C(C(F)(F)F)CC(c1ccc(Cl)cc1)N2)N1CCCC1` (configuration not stated) the AC50 [1] was 6.51 µM [falling, single point] and the AC50 [2] was 3.66 µM [rising, partial curve, poor fit].
In the case of `CCOC(=O)Oc1c(OC)cc(C(=O)O[C@@H]2C[C@@H]3CN4CCc5c([nH]c6cc(OC)ccc56)[C@H]4C[C@@H]3[C@H](C(=O)OC)[C@H]2OC)cc1OC`, the AC50 [1] is reported as 13 µM [falling, partial curve, poor fit].
With `Cc1ccc(CSc2nc3ccccc3c(=O)[nH]2)cc1` the AC50 [1] was 3.55 µM [rising, single point].
With `Cn1c(SCC(=O)N/N=C/C=C/c2ccccc2[N+](=O)[O-])nc2ccccc21` the AC50 [1] was 10.3 µM [rising, partial curve].
In the case of `Nc1nc(-c2ccc(Cl)cc2)c(S(=O)(=O)c2ccccc2)s1`, the AC50 [1] is reported as 25.1 µM [falling, single point].
For `COC(=O)c1ccccc1NC(=O)Nc1cc(C)ccn1`, the AC50 [1] was 0.501 µM [rising, full curve, poor fit].
In the case of `CCn1c(C(=O)O)c(CC(=O)Nc2cccc(C(F)(F)F)c2)c2ccccc21`, the AC50 [1] is reported as 6.31 µM [rising, single point].
In the case of `Cc1nc2ccc(-c3nc4cc(N)ccc4o3)cc2[nH]1`, the AC50 [1] is reported as 16.4 µM [falling, partial curve, poor fit].
With `CCCc1ccc2oc(C(=O)NCCCN3CCOCC3)c(C)c2c1` the AC50 [1] was 11.2 µM [rising, partial curve].
In the case of `C=C(C)COc1ccc(-c2nc(N)ncc2Oc2ccccc2OC)c(O)c1`, the AC50 [1] is reported as 10 µM [rising, partial curve, poor fit].
With `Cc1ccc(NC(=O)C2CCCN(C(=O)c3ccc(Cl)cc3)C2)cc1C` (configuration not stated) the AC50 [1] was 0.447 µM [rising, full curve, poor fit].
With `CN(C)N=Nc1ccc(-c2cn(Cc3ccccc3)cn2)cc1` the AC50 [1] was 8.91 µM [rising, partial curve].
For `Cc1sc(NC(=O)c2ccccc2)c(C(c2ccc(Cl)cc2)N2CCN(CCO)CC2)c1C` (configuration not stated), the AC50 [1] was 29.1 µM [falling, single point].
For `CCc1nnc(NC(=O)c2c(O)c3cccc4c3n(c2=O)CC4)s1`, the AC50 [1] was 13 µM [falling, partial curve, poor fit].
With `O=C(CSc1ccc(F)cc1)NNC(=O)c1ccccc1Br` the AC50 [1] was 35.5 µM [falling, single point].
With `Nc1nonc1-n1nnc(C(=O)N/N=C/c2ccncc2)c1CSc1ccccc1` the AC50 [1] was 20 µM [falling, single point].
In the case of `CC(=O)N1CN(Cc2ccccn2)Cc2c1sc1c2CCCC1`, the AC50 [1] is reported as 29.1 µM [rising, single point] and the AC50 [2] is reported as 29.1 µM [falling, single point].
In the case of `CC(NC(=O)COC(=O)c1cc(Cl)nc(Cl)c1)c1ccccc1` (configuration not stated), the AC50 [1] is reported as 12.6 µM [rising, single point].
For `Cc1ccc(C2=NN(CCC#N)C(=O)CO2)cc1`, the AC50 [1] was 35.5 µM [rising, single point].
For `Cc1ccc(S(=O)(=O)NC(=NCc2ccccc2)c2ccc(F)cc2)cc1`, the AC50 [1] was 5.01 µM [falling, partial curve, poor fit].
For `COc1ccc2c(=O)c3c(=O)n(Cc4ccco4)c(-c4ccccc4)nc3oc2c1`, the AC50 [1] was 3.66 µM [falling, partial curve].
For `Cc1ccc(Cl)cc1N1CCN(C(=O)c2noc(C(C)C)c2[N+](=O)[O-])CC1`, the AC50 [1] was 8.91 µM [falling, partial curve].
In the case of `Cc1cccnc1NC(=O)Cn1nc(-c2ccccc2)oc1=S`, the AC50 [1] is reported as 13 µM [falling, partial curve].
